{
  "source": "the M2OR odorant receptor database",
  "note": "This is one part of the list. Calls are pooled over several reports, among them a noisy single-well screen.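 Note: active if original authors judged signal statistically different from baseline.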",
  "data": [
    {"tested_on": "T1, OR1M1", "T1 sequence (whole entry)": "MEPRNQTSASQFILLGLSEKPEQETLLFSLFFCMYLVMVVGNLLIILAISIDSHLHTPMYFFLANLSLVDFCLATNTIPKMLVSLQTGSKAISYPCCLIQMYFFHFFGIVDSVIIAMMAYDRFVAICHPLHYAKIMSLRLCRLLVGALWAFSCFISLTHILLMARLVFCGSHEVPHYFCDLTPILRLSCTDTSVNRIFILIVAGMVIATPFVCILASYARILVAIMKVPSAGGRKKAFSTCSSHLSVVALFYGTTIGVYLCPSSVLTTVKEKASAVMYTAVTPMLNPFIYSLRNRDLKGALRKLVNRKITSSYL", "conditions": "stereoisomer not certain", "in_short": "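Transient luciferase assays in mammalian cell lines were common, though methods varied by source. The values come from published papers and their supplementary material, with extra details from the original authors when needed. Responsive refers to a measured signal the original authors judged statistically different from baseline, and non-responsive (inactive) to the remainder.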", "values": [
      {"molecule": "COc1cc(C=O)ccc1O", "odorant receptor agonist call": "inactive"},
      {"molecule": "CC1=CCC(C(C)(C)O)CC1", "note": "(stereo not given)", "odorant receptor agonist call": "inactive"},
      {"molecule": "CC(C)CC(=O)O", "odorant receptor agonist call": "inactive"},
      {"molecule": "O=C1CCCCCCCCCCCCCCO1", "odorant receptor agonist call": "inactive"},
      {"molecule": "CC1CCC(C(C)C)C(O)C1", "note": "(stereo not given)", "odorant receptor agonist call": "inactive"},
      {"molecule": "COC(=O)c1ccccc1", "odorant receptor agonist call": "inactive"},
      {"molecule": "C=CCc1ccc(OC(C)=O)c(OC)c1", "odorant receptor agonist call": "active"},
      {"molecule": "C=CCc1ccc(OC)c(OC)c1", "odorant receptor agonist call": "inactive"},
      {"molecule": "CC=Cc1ccc(O)c(OC)c1", "odorant receptor agonist call": "inactive"},
      {"molecule": "COc1ccccc1O", "odorant receptor agonist call": "inactive"},
      {"molecule": "CC1=NC(C)SC1C", "note": "(stereo not given)", "odorant receptor agonist call": "inactive"},
      {"molecule": "C=CC(C)(O)CCC=C(C)C", "note": "(stereo not given)", "odorant receptor agonist call": "inactive"},
      {"molecule": "CC(=O)c1ccccc1", "odorant receptor agonist call": "inactive"},
      {"molecule": "CC(C)CCC(=O)O", "odorant receptor agonist call": "inactive"},
      {"molecule": "CCCCCOC(C)=O", "odorant receptor agonist call": "inactive"},
      {"molecule": "CC(C)(C)c1ccc(CCC=O)cc1", "odorant receptor agonist call": "inactive"},
      {"molecule": "CC(C)=CCCC(C)=CC=O", "odorant receptor agonist call": "inactive"},
      {"molecule": "CCCC(=O)O", "odorant receptor agonist call": "inactive"},
      {"molecule": "O=C1CCCCC1", "odorant receptor agonist call": "inactive"},
      {"molecule": "CCCCCCCOC(C)=O", "odorant receptor agonist call": "active"},
      {"molecule": "CC(=O)OC1CC2CCC1(C)C2(C)C", "note": "(stereo not given)", "odorant receptor agonist call": "inactive"},
      {"molecule": "CCCCCC(C)=O", "odorant receptor agonist call": "inactive"},
      {"molecule": "CC1COCc2cc3c(cc21)C(C)(C)C(C)C3(C)C", "note": "(stereo not given)", "odorant receptor agonist call": "inactive"},
      {"molecule": "CCCCCCCC=CC=O", "odorant receptor agonist call": "inactive"},
      {"molecule": "CC12CCC(CC1)C(C)(C)O2", "odorant receptor agonist call": "inactive"}
    ]}
  ]
}
